In the supplement of paper PMC10735217 one finds TEAD-luciferase reporter activity data, which are given here for 30 compounds.

Each structure is given as a SMILES string. Some of the results follow. Repeats in this data set agree poorly, so a single value says little.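 Human kidney-derived cells stably carry a construct in which eight TEAD-binding elements drive luciferase, measured by luminescence in a drug-repurposing library screen. A hit is any compound whose signal exceeds the plate mean by more than five robust Z scores.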

This assay deals with HEK293A TEAD-LUC reporter. As to the kind of experiment: TEAD-luciferase reporter activity (YAP activation), robust Z score vs plate; higher = stronger YAP/TEAD activation. As to conditions: 24 h. A general note: Reporter assays use an easily measured gene product as a stand-in for the process of interest.

With `C[C@H]1Oc2c(cccc2N2CCN(CCCc3c[nH]c4ccc(F)cc34)CC2)NC1=O`, the TEAD-luciferase reporter activity by setting is: (compound concentration: 200 nM) inactive: -0.901; (compound concentration: 2 uM) inactive: 0.368; (compound concentration: 10 uM) inactive: -0.566.
As to `O=C(c1ccccc1Cl)c1cccnc1-c1nnn(Cc2cc(C(F)(F)F)cc(C(F)(F)F)c2)c1-c1ccncc1` [tradipitant], the TEAD-luciferase reporter activity reads like this: (compound concentration: 200 nM) inactive: 0.206; (compound concentration: 2 uM) inactive: -0.787; (compound concentration: 10 uM) inactive: -0.0702.
The matching figures for `CONC1=NC(=O)/C(=C/c2cc(C(C)(C)C)c(O)c(C(C)(C)C)c2)S1`: inactive: -0.653, inactive: -1.64 and inactive: -1.71.
As for `COCC1(COC)Oc2ccc(C#N)cc2[C@@H](Nc2ccc(=O)n(C)n2)[C@@H]1O`, the TEAD-luciferase reporter activity is, setting by setting: (compound concentration: 200 nM) inactive: 0.544; (compound concentration: 2 uM) inactive: -1.7; (compound concentration: 10 uM) inactive: -0.321.
The corresponding values for `O=C(NC1CCCCC1)NS(=O)(=O)c1ccc(CCNC(=O)c2cccc3c2OCC3)cc1` are inactive: -2.26, inactive: -0.326 and inactive: -0.515.
Take `CC(=O)N1CCN(CCOc2ccc(C3CCN(C4=Nn5c(nnc5C(F)(F)F)CC4)CC3)cc2)CC1`: the TEAD-luciferase reporter activity by setting is: (compound concentration: 200 nM) inactive: -1.04; (compound concentration: 2 uM) inactive: -1.12; (compound concentration: 10 uM) inactive: 0.762.
For the compound `Cn1cc(CNCC2CCN(c3ncc(C(=O)NO)cn3)CC2)c2ccccc21` [Quisinostat], the TEAD-luciferase reporter activity is, setting by setting: (compound concentration: 200 nM) inactive: 0.467; (compound concentration: 10 uM) active: 39.8.
`Cn1cc(CNCC2CCN(c3ncc(C(=O)NO)cn3)CC2)c2ccccc21` [quisinostat]: the TEAD-luciferase reporter activity (compound concentration: 2 uM) is active: 25.4.
Consider `COc1cc2c(cc1OC)-c1c(C)c3ccc(OC)c(OC)c3c[n+]1CC2` [Dehydrocorydaline], for which the TEAD-luciferase reporter activity (compound concentration: 200 nM) was active: 10.7, the TEAD-luciferase reporter activity (compound concentration: 2 uM) is inactive: -1.34 and the TEAD-luciferase reporter activity (compound concentration: 10 uM) was inactive: 4.12.
As for `O=C(NCC(F)F)C1CCCN(c2nc3ncccc3o2)C1` (centres undefined), the TEAD-luciferase reporter activity (compound concentration: 200 nM) was inactive: -1.26 and the TEAD-luciferase reporter activity (compound concentration: 10 uM) is inactive: -0.897.
Regarding `CC(C)C[C@H](N)C(=O)N1CCC[C@H]1C(=O)N[C@@H](Cc1ccccc1)C(=O)N[C@@H](Cc1ccccc1)C(=O)N[C@@H](CC(=O)O)C(=O)O` [Beta-sheet breaker peptide], the TEAD-luciferase reporter activity was inactive: -0.138 (compound concentration: 200 nM), inactive: -0.793 (compound concentration: 2 uM) and inactive: -0.422 (compound concentration: 10 uM).
Consider `Clc1ccc(COC(Cn2ccnc2)c2ccc(Cl)cc2Cl)c(Cl)c1` (centres undefined), for which the TEAD-luciferase reporter activity (compound concentration: 200 nM) was inactive: -2.02, the TEAD-luciferase reporter activity (compound concentration: 2 uM) is inactive: -0.0343 and the TEAD-luciferase reporter activity (compound concentration: 10 uM) was inactive: 1.05.
The matching figures for `Clc1cc(/C=C\CN2CCCCCC2)ccc1C1CCCCC1`: inactive: -0.851, inactive: -1.71 and inactive: 0.987.
As to `Fc1ccc(C2CCNCC2COc2ccc3c(c2)OCO3)cc1` (centres undefined) [paroxetine], the TEAD-luciferase reporter activity (compound concentration: 2 uM) was inactive: 3.8.
As for `Fc1ccc(C2CCNCC2COc2ccc3c(c2)OCO3)cc1` (centres undefined) [Paroxetine], the TEAD-luciferase reporter activity (compound concentration: 200 nM) was inactive: -1.01 and the TEAD-luciferase reporter activity (compound concentration: 10 uM) is inactive: -0.162.
With `Nc1ccc(C(=O)N(CCN2CCC(C(=O)c3ccccc3)CC2)c2cccnc2)cc1`, the TEAD-luciferase reporter activity (compound concentration: 200 nM) is inactive: -1.41, the TEAD-luciferase reporter activity (compound concentration: 2 uM) was inactive: -1.29 and the TEAD-luciferase reporter activity (compound concentration: 10 uM) was inactive: -1.5.
For the compound `CCCC(=O)Nc1c(I)cc(I)c(CC(CC)C(=O)O)c1I` (centres undefined) [Tyropanoate Sodium], the TEAD-luciferase reporter activity was inactive: 2.11 (compound concentration: 200 nM), inactive: -0.834 (compound concentration: 2 uM) and inactive: -0.124 (compound concentration: 10 uM).
For `O=c1[nH]c(=O)n([C@H]2C[C@H](O)[C@@H](CO)O2)cc1F` [5-fluoro-2'-deoxyuridine], the TEAD-luciferase reporter activity (compound concentration: 2 uM) is inactive: -1.89.
Take `O=c1[nH]c(=O)n([C@H]2C[C@H](O)[C@@H](CO)O2)cc1F`: the TEAD-luciferase reporter activity reads like this: (compound concentration: 200 nM) inactive: -2.68; (compound concentration: 10 uM) inactive: -2.21.
Consider `COC(=O)N[C@@H](C)CNc1nccc(-c2cn(C(C)C)nc2-c2cc(Cl)cc(NS(C)(=O)=O)c2F)n1`, for which the TEAD-luciferase reporter activity is inactive: -1.97 (compound concentration: 200 nM) and inactive: -0.28 (compound concentration: 10 uM).
Take `COC(=O)N[C@@H](C)CNc1nccc(-c2cn(C(C)C)nc2-c2cc(Cl)cc(NS(C)(=O)=O)c2F)n1` [Encorafenib]: the TEAD-luciferase reporter activity (compound concentration: 2 uM) is inactive: -1.54.
For the compound `Cc1nc(Cn2cnc3c2c(=O)[nH]c(=O)n3C)no1`, the TEAD-luciferase reporter activity is, setting by setting: (compound concentration: 200 nM) inactive: -0.496; (compound concentration: 2 uM) inactive: -0.801; (compound concentration: 10 uM) inactive: 0.796.
As to `C=CC/N=C1/Nc2cccc(c2)C(=O)[O][Cu-][S]1`, the TEAD-luciferase reporter activity by setting is: (compound concentration: 200 nM) inactive: 2.46; (compound concentration: 2 uM) inactive: -0.657; (compound concentration: 10 uM) inactive: 2.84.
`Cc1cc(-c2cc3c(cc2F)c(=O)c(C(=O)O)cn3C2CC2)cc(C)n1`: the TEAD-luciferase reporter activity is inactive: 1.72 (compound concentration: 200 nM), inactive: 1.5 (compound concentration: 2 uM) and inactive: -1.17 (compound concentration: 10 uM).
For `CCc1ccc(NC(=O)N2CCN(c3ccccc3OC)CC2)cc1`, the TEAD-luciferase reporter activity was inactive: -0.285 (compound concentration: 200 nM), inactive: 0.306 (compound concentration: 2 uM) and inactive: 3.9 (compound concentration: 10 uM).
With `OCC(O)CO`, the TEAD-luciferase reporter activity was inactive: -0.348 (compound concentration: 200 nM), inactive: -0.751 (compound concentration: 2 uM) and active: 6.99 (compound concentration: 10 uM).
The matching figures for `CC(C)[C@H](NC(=O)[C@H](CCCNC(=N)N)NC(=O)[C@@H](N)CC(N)=O)C(=O)N[C@@H](Cc1ccc(O)cc1)C(=O)N[C@H](C(=O)N[C@@H](Cc1c[nH]cn1)C(=O)N1CCC[C@H]1C(=O)N[C@@H](Cc1ccccc1)C(=O)O)C(C)C`: inactive: -1.75, inactive: -0.884 and inactive: 1.91.
Regarding `COc1ccc2nccc(C(O)CC[C@@H]3CCN(CCSc4cccs4)C[C@@H]3C(=O)O)c2c1` (some centres undefined), the TEAD-luciferase reporter activity by setting is: (compound concentration: 200 nM) inactive: -1.36; (compound concentration: 2 uM) inactive: -1.26; (compound concentration: 10 uM) inactive: -1.08.
For the compound `CC(=O)CC(c1ccccc1)c1c(O)c2ccccc2oc1=O` (centres undefined), the TEAD-luciferase reporter activity (compound concentration: 200 nM) was inactive: -0.827 and the TEAD-luciferase reporter activity (compound concentration: 10 uM) was inactive: -1.19.
On to `CC(=O)CC(c1ccccc1)c1c(O)c2ccccc2oc1=O` (centres undefined) [Warfarin potassium], for which the TEAD-luciferase reporter activity (compound concentration: 2 uM) was inactive: 1.61.
